The target of assay [1] is T1, full length human TCTP (Translationally Controlled Tumour Protein) (human) (UniProt P13693).
T1 sequence: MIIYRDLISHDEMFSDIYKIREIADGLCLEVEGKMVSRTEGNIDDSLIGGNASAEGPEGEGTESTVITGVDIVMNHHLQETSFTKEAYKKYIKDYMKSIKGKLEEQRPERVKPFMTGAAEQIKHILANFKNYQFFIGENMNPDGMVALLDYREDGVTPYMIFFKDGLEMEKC
In words: NMR titration.

Assay [2] concerns the target human Mcl-1 ΔPESTΔTM (human). The experiment in a line: NMR titration.
The target of assay [3] is human Mcl-1 ΔPESTΔTM (human). In words: NMR titration. This is another data set of the same source.
Assay [4] deals with human Mcl-1 ΔPESTΔTM (human). In words: condition: only in an equimolar mix with TCTPBH3D16I and MuleBH3.

In doi:10.1101/2022.11.05.515280 one finds binding data, which are given here for four molecules.

No constants are given. Whether binding was seen depends on the method and setting. For some of these results: Binding can be weak; no strength is given.

On to “human Mcl-1 ΔPESTΔTM (domain or fragment)”, for which the binding result in assay [1] is “binds weakly”.

B1: full length human TCTP (Translationally Controlled Tumour Protein) (protein, UniProt P13693 1-172)
chain: MIIYRDLISHDEMFSDIYKIREIADGLCLEVEGKMVSRTEGNIDDSLIGGNASAEGPEGEGTESTVITGVDIVMNHHLQETSFTKEAYKKYIKDYMKSIKGKLEEQRPERVKPFMTGAAEQIKHILANFKNYQFFIGENMNPDGMVALLDYREDGVTPYMIFFKDGLEMEKC
Take B1: the values for the binding result in assay [2] and in assay [3] were “binds weakly” and “binds”, respectively.

Turning to DEMFSDIYKIREIADGLCLEVE (peptide, UniProt P13693 11-32) [TCTP BH3-like peptide (TCTPBH3)], the values for the binding entry in assay [2], in assay [3] and in assay [4] were “binds weakly”, “binds weakly” and “no binding”, respectively.

As to DEMFSIIYKIREIADGLCLEVE (peptide, UniProt P13693 11-32) [TCTP BH3-like peptide D16I mutant (TCTP_(BH3D16I))], the binding entry in assay [3] was “binds”.
